Assay results

Source: PubChem BioAssay AID1159506 (NCATS, 2015).

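Luminescence from an EWS-FLI1 target-promoter (NR0B1) reporter, set against a CMV-promoter reporter, two days after silencing single genes in TC32 Ewing sarcoma cells. Each siRNA was applied at 20 nM. A z-score of the log NR0B1-over-CMV signal, less the median of siRNAs with the same seed; more negative means a stronger specific loss of the NR0B1 reporter.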

This is part of the screen; most of the strongest results are not listed here. Sequences are the guide (antisense) strand, without overhang.

siRNA	gene	seed-corrected z-score
UUCGGUCCUGUAACUUAUG	DLX6-AS1	0.4345
UACCUUCCAGUGGUCUACC	AMZ2P1	-0.3219
AAGGAUACGACAUCCUUGC	ERV3-1	-0.05566
UGAUCGGUUAUCGUUGUCC	CA1	-0.1691
AUACUGACCCUUGCAGCUU	FAM198A	0.05334
UUUAUGUAGAUUCAUAGUC	LINC01501	-0.06844
UCAGCAUGAAGAGCAAGGC	PLVAP	0.1521
AUUCGUGUCAGUCUUGUUC	ELK1P1	0.3789
AGAUCUACCAUCAGAAGGC	RANBP17	0.5427
AGAAUGACACUGAAGUUGC	PTGER2	-0.1456
ACCGUAAUAACCAAGGUUC	SETBP1	0.8744
AAUUCAACCACUUAAGAAC	EMC6	2.338
AAAUGGUCCACGCUGAGUG	HCN3	0.154
AAUGCUAUUCGGAGAGACC	TVP23A	-0.2034
ACAGGAAAGGGAAAUAGUG	VSIG1	0.6386
UAUUGAUCUGUCAAGACGG	SYCP2L	-0.9109
UUAACAAAUUGGACUAUUG	MTX2	0.8547
UCCGUUUUAUGUCAGAAGC	CCNG2	-0.4657
UUCUUUACAUGCAUAAGGC	ZNF846	0.8474
UCUAUGGAAACGGCAUUGG	ADAM12	0.2816
UACACGGACAUGGAUUUCC	ATP2A3	0.1
UCACAGAUCAGGUUCAUGA	RDH5	-0.2633
UGAGUGUAGAGCUGCCUUG	SPHK2	-0.8086
CAGCUUAUCAUUCACAGUG	DNMT3A	-0.1846
UCAGGGACAGAGUAAAGGG	TAS2R50	-0.9964
UUAGAUGUAAGAGGGCUCC	LRRC1	-0.1136
UAUCUUGAUAUUUCAGGGC	NSUN7	-0.7839
UCAUUGAAUAUCUGCAUGU	HMOX2	0.006142
AACACUGUUAUCUUCUUAU	PRH1	-0.4046
AUAGUAUGCUCAACAAUUC	OR8K5	0.5197
UCAGGUCACAUUCUACCUC	GEMIN8	1.292
UCAUGUGUUGCAGACAACA	SFTA2	0.3411
UCCGUGGAUAGCAUGCUUC	MCF2L2	-0.7609
UCUACUAUGUCUGUGGUCC	NCOA5	0.1116
UUAAAAUCUGCCUGCAUCC	CD63	0.8966
UUCUCCGUCACUUCAAUCC	FAM186B	0.05949
UCUUCGAACUCGUACAGCC	C16orf59	-0.5385
UGAUCUAAGACGAUGUCCC	TRANK1	-0.471
UCUCGCACAACUCCGACAC	MRFAP1L1	-0.3994
UAAUGUCAAAGACUCCUUC	RAB2A	-0.3694
UACUGAUCUCUCUUAUUGC	PDSS1	-0.8053
UUCAAAGAAGGUAUGAUGG	AARS2	0.1919
UUCUUGGUGAGGAAACAGU	PTAFR	-1.798
UUUGAUAUUUGGGUGGAUC	KLF1	-0.4664
AAAGUCAUCUGUGAUGAGC	MAGED4B	-0.9066
UCCUGUUCGACAAUCUUCA	GABRG2	-1.423
UGCAAUCCUAUUCCAAUGC	FBXW12	-0.1941
UGAAUGAUUUGUACUUAGC	FCN1	0.131
UUUUGUAGCAUCGGAGUCU	C19orf52	-0.3775
UGAACUUCUGUUGUGCCUC	HAT1	-1.013
UGUCUAUAAAGUGUGGGUC	GLIPR1L1	-0.00918
ACUGCUGUAACUAUGUCCC	MAGEA5	-0.4277
UUCUCUGAACGCAAAACCC	ORAI2	0.2099
UACACUUUCAGAAUCCGGC	OSBPL1A	1.485
UGACUUUCUGCACCUGAGG	GAL3ST2	-0.2165
AUACAGUCAAGUAUUGAAG	MGAT2	1.779
AACUUGAUGAGAGUCUGGG	LOC730378	-0.9595
UCCGGGACAAGUAGGUGAU	PRAMENP	0.6035
UAAGUUAUCUGUACUGCAG	CCDC160	0.1713
AGAUUAAGAAUAACGUUCU	PAGE2	0.5133
UAUUCUCACAGUAGACACU	TRAF4	-0.9979
UAUGGUCAGAUCUUCCAUG	MEOX2	0.6254
UUCGGUCCAAAAUAGAUCC	ABCE1	-1.396
UGCCUGUUAGAGUGGAGCC	PRR30	-0.7464
UUCUUGCCCAGAAAGCGGA	TRIL	-0.021
UGACUACUGCGGUAAGUGC	CASC5	-0.419
UGUUAUUCCAGAAAGGUCG	SERPINI2	-0.4914
UUCUGGAACUAAGAUAAGG	RNF13	0.92
UAAUUUCAUAAUGCAGCUC	CCL18	-1.126
UUGGUGGAAACGGCACAGU	CCR9	0.1691
UCACGAACCAAAGUGUCUU	ZNF80	-0.09212
UUUCUGAUAAUAGUCUUUC	SNRPC	0.3838
UCAUAGUAAACCGUCACGG	NUP210	0.3615
UUCUUAAACAGAAGGAAGC	OR12D3	0.2234
UUCUCGAAGACAUUGUCCU	MICALL1	-0.507
ACUUGUAAUAGUACUUGCG	ZNF335	0.8937
UCAAUUCCAUGCUUCUAUC	MRS2	-0.3355
UGACCUAACAGCAGGCCUC	CRHR1-IT1	0.4939

Once more, the final 5:

siRNA	gene	seed-corrected z-score
UUCUUAAACAGAAGGAAGC	OR12D3	0.2234
UUCUCGAAGACAUUGUCCU	MICALL1	-0.507
ACUUGUAAUAGUACUUGCG	ZNF335	0.8937
UCAAUUCCAUGCUUCUAUC	MRS2	-0.3355
UGACCUAACAGCAGGCCUC	CRHR1-IT1	0.4939